Strings that start with PEPTIDE1 are HELM notation: dots part the residues, brackets hold end groups and non-standard residues.

One series is described as follows: general procedure: peptide synthesis; TSTU/DIPEA. As to conditions: conjugation step.
NOTA-E{E[c(RGDyK)]2}2 yielded a conjugation yield of 43%.

Substance NOTA-E[c(RGDyK)]2 registered a conjugation yield of 52%.

As to NOTA-c(RGDyK), the conjugation yield is given as 61%.

As for Boc-NH-mini-PEG-CO-E{E[c(RGDyK)]2}2, the conjugation yield was 60% yield.

Staying with this series, now noted: conjugation step, overall.
In turn, E{E[c(RGDyK)]2}2 gave a conjugation yield of 58% overall yield.

In turn, E(E{E[c(RGDyK)]2}2)2 showed a conjugation yield of 46% overall yield.

As to “PEPTIDE1{[miniPEG].[Glu]}|PEPTIDE2{R.G.D.[dY].K}|PEPTIDE3{R.G.D.[dY].K}$PEPTIDE2,PEPTIDE2,1:R1-5:R2|PEPTIDE3,PEPTIDE3,1:R1-5:R2|PEPTIDE1,PEPTIDE2,2:R2-5:R3|PEPTIDE1,PEPTIDE3,2:R3-5:R3$$$V2.0”, the conjugation yield amounted to 64%.

Staying with this series, now noted: late stage modification step.
Substance “PEPTIDE1{[FB].[miniPEG].[Glu].[Glu]}|PEPTIDE2{[Glu]}|PEPTIDE3{R.G.D.[dY].K}|PEPTIDE4{R.G.D.[dY].K}|PEPTIDE5{R.G.D.[dY].K}|PEPTIDE6{R.G.D.[dY].K}$PEPTIDE3,PEPTIDE3,1:R1-5:R2|PEPTIDE4,PEPTIDE4,1:R1-5:R2|PEPTIDE5,PEPTIDE5,1:R1-5:R2|PEPTIDE6,PEPTIDE6,1:R1-5:R2|PEPTIDE1,PEPTIDE2,3:R3-1:R1|PEPTIDE1,PEPTIDE3,4:R2-5:R3|PEPTIDE1,PEPTIDE4,4:R3-5:R3|PEPTIDE2,PEPTIDE5,1:R2-5:R3|PEPTIDE2,PEPTIDE6,1:R3-5:R3$$$V2.0” returned a step yield of 65% yield.

Consider FB-NH-mini-PEG-E[c(RGDyK)]2, for which the step yield was determined as 69%.

“PEPTIDE1{[miniPEG].[Glu].[Glu]}|PEPTIDE2{[Glu]}|PEPTIDE3{R.G.D.[dY].K}|PEPTIDE4{R.G.D.[dY].K}|PEPTIDE5{R.G.D.[dY].K}|PEPTIDE6{R.G.D.[dY].K}$PEPTIDE3,PEPTIDE3,1:R1-5:R2|PEPTIDE4,PEPTIDE4,1:R1-5:R2|PEPTIDE5,PEPTIDE5,1:R1-5:R2|PEPTIDE6,PEPTIDE6,1:R1-5:R2|PEPTIDE1,PEPTIDE2,2:R3-1:R1|PEPTIDE1,PEPTIDE3,3:R2-5:R3|PEPTIDE1,PEPTIDE4,3:R3-5:R3|PEPTIDE2,PEPTIDE5,1:R2-5:R3|PEPTIDE2,PEPTIDE6,1:R3-5:R3$$$V2.0”: the step yield amounted to 90%.

Source of the values: patent US20080267882A1 (Stanford University, priority 2007, published 2008).
